# Most values lie at the floor of the assay. Slopes are relative: functional sequences can read slightly below zero.
# System: Saccharomyces cerevisiae PS128 hsf1 delta, HSF1(1-493) fusion
# Assay: growth estimate (transactivation domain function in HSF1 fusion, heat-shock survival) (a.u. (slope of normalised read count over time)); higher = stronger growth at 37°C, i.e. more transactivation activity
# Conditions: library: random library
row,Substance,growth estimate
1,NLRREDAMMRRHALSTCKVR,< -0.25
2,NLRS,< -0.25
3,NLRYPE,< -0.25
4,NLSPGR,< -0.25
5,NLSVEGGSGGIGSPQAP,< -0.25
6,NLTCKRQSCSVG,< -0.25
7,NLTGTTAPPRAAVDVHDRQC,< -0.25
8,NLTLVQLFPGSCGTTVMACP,< -0.25
9,NLVVKICSESRAFSVISRPR,< -0.25
10,NLWRTC,< -0.25
11,NLYADRNILSRNGF,< -0.25
12,NLYDSPGNMKGKFVSSSASS,< -0.25
13,NMDNWWDRSRWVFGAQVMLV,< -0.25
14,NMETVVPKGINSAGTTTGTS,< -0.25
15,NMGRQCACSGFLMPLVITKY,< -0.25
16,NMLIGVMLQDGTWNVQRYWS,< -0.25
17,NMQVTVL,< -0.25
18,NMRGFGAIRCCCATFLNAS,-0.243
19,NMSAVILFAAGWARLYEVIL,< -0.25
20,NMTE,< -0.25
21,NNGHFHQVSGDVKKVRLEPC,< -0.25
22,NNSGCQTFVRKMQPGGSNFS,< -0.25
23,NNWPINTNLATVR,< -0.25
24,NNYRT,< -0.25
25,NPAALSWTASDNHGTRLERP,< -0.25

# Retrieved one by one from the entries so far, 7 records:
row,Substance,growth estimate
16,NMLIGVMLQDGTWNVQRYWS,< -0.25
12,NLYDSPGNMKGKFVSSSASS,< -0.25
17,NMQVTVL,< -0.25
19,NMSAVILFAAGWARLYEVIL,< -0.25
15,NMGRQCACSGFLMPLVITKY,< -0.25
3,NLRYPE,< -0.25
20,NMTE,< -0.25

# Further results.

row,Substance,growth estimate
1,NPDDLINQGEG,< -0.25
2,NPDLRGDAKFDTVSWLCLTV,< -0.25
3,NPDLVGQYFFTSRLASSTAV,< -0.25
4,NPEAANTPGWSNYGLTGVRP,< -0.25
5,NPEF,< -0.25
6,NPFKEIPV,< -0.25
7,NPFTFDRNRTVR,< -0.25
8,NPGEELEYAN,< -0.25
9,NPGIRWQLASGRWRR,< -0.25
10,NPKGTPLNGG,< -0.25
11,NPKL,< -0.25
12,NPL,< -0.25
13,NPPGKGES,< -0.25
14,NPPGNSSES,< -0.25
15,NPPSAYGQDIPTLWSAQEYS,< -0.25
16,NPRTRMGKDLREIGSYYSET,< -0.25
17,NPRWRVPLTWEKVSRRESTY,< -0.25
18,NPRWSGPMTDSVGVEYMTKL,-0.248
19,NPSIGSHILAVHSRRRITSI,< -0.25
20,NPSRSGSRPASKPTLVFVGP,< -0.25
21,NPSWKCTDFEKSALVPGSLG,< -0.25
22,NPWGLHAWGPFHLQRVQCDL,< -0.25
23,NPWTIGKCSGGERGKSLIHE,-0.25
24,NQAPS,< -0.25
25,NQATEFSRSERSLTLSEQFH,< -0.25

row,Substance,growth estimate
1,NQDLS,< -0.25
2,NQGVHSARHVLGMSHYISA,< -0.25
3,NQL,< -0.25
4,NQNTSEVCVAATTHPVGIYP,< -0.25
5,NQPLTSTPTGPRRTSNARCL,-0.246
6,NRARGERDCQEDYR,< -0.25
7,NRATCYVSCAFCRFAVMNAP,< -0.25
8,NRAVSFRVARKLRRV,< -0.25
9,NRCLVKYKNR,< -0.25
10,NREHVTRRVNTIILT,< -0.25
11,NRFYTMAVALVLRITLVSSV,< -0.25
12,NRGFGKFYTRISGAVLTDRT,< -0.25
13,NRGSVNNLSFAH,< -0.25
14,NRGVSQAGEIHTGER,< -0.25
15,NRISD,-0.246
16,NRLAP,< -0.25
17,NRLGFQR,< -0.25
18,NRLLEAGNMWT,< -0.25
19,NRMVLGWS,< -0.25
20,NRNGSAMGSLRM,< -0.25
21,NRPQKVGVEE,< -0.25
22,NRPSECL,< -0.25
23,NRQDTSASRIPCNIG,< -0.25
24,NRQHLQTPAI,< -0.25
25,NRQRGPMRVKGGRSSICLPS,< -0.25

row,Substance,growth estimate
1,NRRAAGYQEPLRR,< -0.25
2,NRRCLCQPK,< -0.25
3,NRRSRQGIYVWNRINHSAWE,< -0.25
4,NRRVVLRVA,< -0.25
5,NRSFVYRGLF,< -0.25
6,NRSGISGNSFHGLVVVVF,< -0.25
7,NRSGYRLGWLHIGDRNMIHV,< -0.25
8,NRTNR,< -0.25
9,NRTVALGMRI,< -0.25
10,NRV,< -0.25
11,NRVYASPVKTA,< -0.25
12,NRWLRVQGKIKRPCIGELCR,< -0.25
13,NSDIRKGPIHSRTARPGTEF,< -0.25
14,NSDVLFSVVHGWSVPYTRAA,< -0.25
15,NSFGRAI,< -0.25
16,NSGFLYNNSIKL,< -0.25
17,NSGIEESSRET,< -0.25
18,NSGMTRRTGEVSLICLPGPR,< -0.25
19,NSGTAGDLPHTRVPRLLASS,< -0.25
20,NSIGAKVFLASALLITASTP,< -0.25
21,NSIRRLVGIMRSKYLRRHVA,< -0.25
22,NSL,< -0.25
23,NSLNRSSTGREADGGLILYP,< -0.25
24,NSMSVRRAGGPTRERIRTSL,< -0.25
25,NSPLRW,< -0.25

row,Substance,growth estimate
1,NSPSGMGHLATQLIRATRSD,< -0.25
2,NSPVTFSWAIHGTQVPVWSR,< -0.25
3,NSQAWQGGDYQCSIGVFRAD,< -0.25
4,NSRAREQPCHQLRYQQPMLA,< -0.25
5,NSRGGVLVSWVGHKAV,-0.246
6,NSRRVSRR,< -0.25
7,NSRSAIPALNGNLPWHTVSP,< -0.25
8,NSRVTGGELTRGTLMPGPRS,< -0.25
9,NSSHGGSKRLFKCNAS,< -0.25
10,NSSSLAQLNGVREYHLSGPF,< -0.25
11,NSSVPPVDDNSQPSIATPGP,< -0.25
12,NSTAALGVVRWKEVPSCYAA,< -0.25
13,NSTEPPLPSGVFWHGHAARA,< -0.25
14,NSTHGTNCTGSPVVLKLPER,< -0.25
15,NSTSHRVMAMSPVIPWRRV,< -0.25
16,NSVAGVRPIAIRVR,< -0.25
17,NSVLSNLYRAGTGSVVAQRR,< -0.25
18,NSVSMSMLETAVYRLL,< -0.25
19,NSYNRILAS,< -0.25
20,NTCPASDLGGPWPDQENWWI,< -0.25
21,NTCSGSLGPTP,< -0.25
22,NTEGLVVAGAIAE,< -0.25
23,NTFVV,< -0.25
24,NTGEPSMEVKSLVGPTVNGC,< -0.25
25,NTGGDCWRYYRKGLTRALWD,< -0.25

row,Substance,growth estimate
1,NTGTNL,< -0.25
2,NTGWQARCY,< -0.25
3,NTICVSTGHASLGTLVSRLC,< -0.25
4,NTIGIMWHQERMAGESQWIV,< -0.25
5,NTIVPGWLSVRRGWSSLRSG,< -0.25
6,NTKLR,< -0.25
7,NTLSIL,< -0.25
8,NTQVRLSVRYNFRRPSTQQ,< -0.25
9,NTRKSSLTSRNLLGTRSQSV,< -0.25
10,NTRTKPVYFCRTPTLKSLMA,-0.25
11,NTSRDLGRTASSLVSSHRFV,< -0.25
12,NTT,< -0.25
13,NTTLVAIHG,< -0.25
14,NVACTIRRDRESARHFEGSP,< -0.25
15,NVAESFSECSVNPRRKNSFD,< -0.25
16,NVCIFSMDWNWCPDRLECHR,< -0.25
17,NVDRVCVIRTW,< -0.25
18,NVFFAKLGYYSWGRGYN,< -0.25
19,NVGCS,< -0.25
20,NVHPGIARGAQLRAGLSAES,< -0.25
21,NVKLSIWVRITLTPFIRNIE,< -0.25
22,NVKVLCE,< -0.25
23,NVLAQEVLGTSIFGAHELTN,< -0.25
24,NVNVCSNHTFRRVVLRDYQA,< -0.25
25,NVPAHNSEGPAPE,< -0.25

# Nothing new here: entries from further up.
row,Substance,growth estimate
24,NVNVCSNHTFRRVVLRDYQA,< -0.25
25,NVPAHNSEGPAPE,< -0.25

# Carrying on.

row,Substance,growth estimate
1,NVPGGLASPLLSK,-0.246
2,NVPRQFRRETGEGLTSWIKC,< -0.25
3,NVQSLAIEILAVRTLRQKGR,< -0.25
4,NVRVRHNRKRIRYPCAASTA,< -0.25
5,NVSFARKDLNGIEVLN,-0.245
6,NVSLLPVTLGRPVTEGSPTQ,< -0.25
7,NVSSRGD,< -0.25
8,NVTARVTADVPIRACGLSKL,< -0.25
9,NVVV,< -0.25
10,NVYARSNTSCNSSA,< -0.25
11,NVYRLAASIAD,< -0.25
12,NWACPTSVLIQHRRINKSLS,< -0.25
13,NWILNVIKVLRKPDCYRKEL,< -0.25
14,NWIPYEHVQNPGAASML,< -0.25
15,NWRLRCILSQGGL,< -0.25
16,NYARATRVRTSHQNVVRGSN,< -0.25
17,NYARE,< -0.25
18,NYFRAVCVVLRNIYTVVSGV,< -0.25
19,NYGEMKGQRSGPALAGGAAT,< -0.25
20,NYGRGRAYGKLRCNK,< -0.25
21,NYILEA,< -0.25
22,NYK,< -0.25
23,NYLKAIQSNEEGAEYTI,< -0.25
24,NYREVGKCCSNPR,< -0.25
25,NYRV,< -0.25

row,Substance,growth estimate
1,NYRVLNALDQQFLIRRHISL,< -0.25
2,NYVLECLVRWGRPLYVSFSI,< -0.25
3,NYVRNSVERLSEHKHVSPSN,< -0.25
4,PACLRRLRKENVRKCAPWCN,< -0.25
5,PAF,< -0.25
6,PAGCCLGEMPRMILNQRLIP,< -0.25
7,PAGGFGPDSRRVYLNPGSFS,< -0.25
8,PAGPDTSCSFEHEGLMDASG,< -0.25
9,PAHD,< -0.25
10,PAIPNRGYTVSGRGHTRVLA,< -0.25
11,PAISVHHLGREWRHGRTSHA,< -0.25
12,PAKGSGGLLVGGGRPVDRKD,< -0.25
13,PAKREEGVFCQLDDTLRVAY,< -0.25
14,PALCGRNP,< -0.25
15,PALPSIVIGPANIIYSTNTH,< -0.25
16,PANCQTAGDSGPRCAVNLAG,< -0.25
17,PARCYA,< -0.25
18,PASG,< -0.25
19,PASMTIKSSAQTNGALVHDS,-0.248
20,PASVYGEWEGRFLGHSYNLS,< -0.25
21,PAT,< -0.25
22,PAVINTWR,< -0.25
23,PAWIAFECLDDLGGVDWLVA,< -0.25

# Source: the supplement of paper PMC5949888
